Reference: PubChem BioAssay AID588590 (National Center for Advancing Translational Sciences (NCATS), 2011)
Screen size: about 390,000 compounds; about 4,000 (1%) were called active. This list was built around the results that the source calls inconclusive (neither active nor inactive); the mix of calls is not that of the screen. The call rests on the fitted dose curve; in most records, active means well fitted inhibition curve with a large enough effect; inconclusive means small, poorly fitted or top-dose-only effect, or another doubt; inactive means no such curve, though single readings can be large or run the other way. A potency beside an inconclusive call is a rough fit, not a confirmed value.

Chains of the proteins cited; added tags and fusions are not shown. Lines headed by an entry give the natural chain unless they say otherwise; changes in a name come on top.
UniProt Q9UNA4: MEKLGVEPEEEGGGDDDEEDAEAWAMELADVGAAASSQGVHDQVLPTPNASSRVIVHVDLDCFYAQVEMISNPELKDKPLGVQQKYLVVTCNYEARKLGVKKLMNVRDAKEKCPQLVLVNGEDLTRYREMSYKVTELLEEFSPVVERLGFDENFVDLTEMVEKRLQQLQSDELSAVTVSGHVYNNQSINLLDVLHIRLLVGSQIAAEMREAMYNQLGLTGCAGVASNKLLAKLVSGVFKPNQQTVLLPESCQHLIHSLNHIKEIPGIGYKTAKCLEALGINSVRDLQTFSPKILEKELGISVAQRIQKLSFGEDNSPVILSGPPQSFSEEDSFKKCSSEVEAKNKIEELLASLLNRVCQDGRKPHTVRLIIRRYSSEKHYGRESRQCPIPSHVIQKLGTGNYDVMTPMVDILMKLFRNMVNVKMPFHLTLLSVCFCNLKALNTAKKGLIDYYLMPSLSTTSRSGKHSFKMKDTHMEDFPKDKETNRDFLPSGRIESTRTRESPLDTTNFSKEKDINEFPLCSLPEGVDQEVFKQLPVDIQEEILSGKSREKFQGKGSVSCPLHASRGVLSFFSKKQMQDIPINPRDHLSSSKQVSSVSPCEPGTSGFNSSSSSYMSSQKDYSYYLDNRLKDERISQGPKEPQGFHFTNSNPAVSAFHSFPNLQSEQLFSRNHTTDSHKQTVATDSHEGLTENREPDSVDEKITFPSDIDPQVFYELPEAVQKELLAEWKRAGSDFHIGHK

biological target: DNA polymerase iota (Homo sapiens) (UniProt Q9UNA4); assay: qHTS for Inhibitors of Polymerase Iota; settings: Pol iota fluorescent replication assay, 10 min; series mostly up to 115 µM; activity, negative = inhibition: at the top concentration
How it was run: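 Fluorescent replication assay read twice, at 0 min and 10 min after adding 50 nM (final) substrate. Enzyme (10 nM) and compounds were first incubated 15 min at room temperature; enzyme-free buffer wells were negative controls.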
Potency means the concentration at half of the fitted maximal effect.

Row | Structure (SMILES) | Potency | activity, negative = inhibition
1 | CCOc1cc(/C=N/n2cnnc2)cc(Br)c1O | inconclusive: 79.4 µM [inhibitor, partial curve, poor fit] | –
2 | CSCCC(NS(=O)(=O)c1ccc2c(c1)OCCO2)C(=O)N(C)Cc1ccccc1F (stereo unspecified) | – | inactive: 5.77%
3 | Cc1cc(C(=O)COC(=O)CC(NC(N)=O)c2ccc(Cl)cc2)c(C)n1C (stereo unspecified) | inconclusive: 50.1 µM [inhibitor, partial curve] | –
4 | CCc1nnc(NS(=O)(=O)c2ccc(NC(=S)NC(=O)c3ccc(OC)c(OC)c3)cc2)s1 | inconclusive: 15.8 µM [inhibitor, full curve, poor fit] | –
5 | CCOC(=O)c1sc(NC(=O)c2ccncc2)nc1C | inconclusive: 89.1 µM [inhibitor, single point] | –
6 | O=C(O)c1ccccc1N=Nc1c(O)[nH]c2ccc([N+](=O)[O-])cc12 | inconclusive: 20 µM [inhibitor, full curve] | –
7 | O=[N+]([O-])c1ccc(Oc2ccc(Oc3ccc(C(F)(F)F)cn3)cc2)nc1 | inconclusive: 22.4 µM [inhibitor, partial curve, poor fit] | –
8 | Cc1ccc(C)c(OCCC(=O)OCC(=O)N2c3ccccc3NC(=O)C2(C)C)c1 | inconclusive: 79.4 µM [inhibitor, partial curve, poor fit] | –
9 | CCN(CC)C(=O)COc1ccc2oc(-c3ccco3)cc(=O)c2c1 | inconclusive: 44.7 µM [inhibitor, partial curve] | –
10 | CN(CC(=O)Nc1ccccc1Cl)C1CCS(=O)(=O)C1 (stereo unspecified) | inconclusive: 89.1 µM [inhibitor, single point] | –
11 | Nc1ccccc1O | inconclusive: 11.2 µM [inhibitor, partial curve, poor fit] | –
12 | CCOC(=O)[C@H]1[C@H]2COc3cc(OC)ccc3[C@@H]2N2C(=O)CN(CC3CCCO3)C(=O)[C@@]12C (stereo partly specified) | inconclusive: 3.55 µM [inhibitor, partial curve, poor fit] | –
13 | CCCc1cc(=O)oc2cc(C)cc(OC(C)C(=O)NCCN3CCOCC3)c12 (stereo unspecified) | – | inactive: 25.7%
14 | CCS(=O)c1ccccc1C(=O)O (stereo unspecified) | inconclusive: 39.8 µM [inhibitor, partial curve, poor fit] | –
15 | COc1cc(/C=C2\CC/C(=C\c3ccc(OCCO)c(OC)c3)C2=O)ccc1OCCO | active: 7.08 µM | –
16 | COc1ccc(C(=O)COC(=O)c2ccccn2)c(OC)c1 | inconclusive: 56.2 µM [inhibitor, partial curve, poor fit] | –
17 | COc1cccc(NC(=O)C(=O)NCCc2csc(-c3ccc(C)cc3)n2)c1 | – | inactive: -5.3%
18 | CCc1ccccc1NC(=O)CN1CCN(C(=O)c2ccc(OCc3cn4ccccc4n3)cc2)CC1 | – | inactive: 21.7%
19 | COc1ccccc1/C=C(/C(=O)OCC(=O)NCc1ccccc1)c1ccccc1 | – | inactive: -9.35%
20 | CN1CSC2=C(C#N)C(c3cccc(OCc4ccccc4)c3)CC(=O)N2C1 (stereo unspecified) | – | inactive: 2.54%
21 | COc1ccc(/C=C/C(=O)N2CCCC2)cc1OC | inconclusive: 3.55 µM [inhibitor, full curve, poor fit] | –
22 | O=C(CSc1ccc2c(c1)OCCO2)Nc1ncccc1O | inconclusive: 14.1 µM [inhibitor, full curve, poor fit] | –

A draw from above in order of count of non-hydrogen atoms, rising:
Row | Structure (SMILES) | Potency | activity, negative = inhibition
1 | CCOc1cc(/C=N/n2cnnc2)cc(Br)c1O | inconclusive: 79.4 µM [inhibitor, partial curve, poor fit] | –
2 | CSCCC(NS(=O)(=O)c1ccc2c(c1)OCCO2)C(=O)N(C)Cc1ccccc1F (stereo unspecified) | – | inactive: 5.77%
12 | CCOC(=O)[C@H]1[C@H]2COc3cc(OC)ccc3[C@@H]2N2C(=O)CN(CC3CCCO3)C(=O)[C@@]12C (stereo partly specified) | inconclusive: 3.55 µM [inhibitor, partial curve, poor fit] | –

Later entries

Row | Structure (SMILES) | Potency | activity, negative = inhibition
23 | CC(C)NC(=S)N/N=C1\CCCCC1C1CCCCC1 (stereo unspecified) | inconclusive: 79.4 µM [inhibitor, single point] | –
24 | O=C(Nc1cccc2cccnc12)c1cccc2ccccc12 | inconclusive: 56.2 µM [inhibitor, partial curve, poor fit] | –
25 | CCN1CCCC1CNC(=O)c1cc(COc2ccc(C)c(C)c2)on1 (stereo unspecified) | – | inactive: 6.41%
26 | COC(=O)c1ccc(Cl)cc1NC(=O)NCc1c(-n2cccc2)sc2c1CCCC2 | – | inactive: 51%
27 | NS(=O)(=O)c1ccc(-c2ccc(C=C3C(=O)c4ccccc4C3=O)o2)cc1 | inconclusive: 15.8 µM [inhibitor, partial curve, poor fit] | –
28 | Cc1ccc(CNC(=O)c2cn(C)c3ccc(S(=O)(=O)N4CCC(C)CC4)cc3c2=O)cc1 | – | inactive: -0.232%
29 | CSc1nc(NCc2ccco2)c2ccccc2n1 | inconclusive: 35.5 µM [inhibitor, single point] | –
30 | CC(C)(C)OC(=O)NCc1ccc(CNC(=O)c2[nH]cnc2C(=O)N[C@@H](Cc2ccccc2)C(=O)OCc2ccccc2)cc1 | inconclusive: 39.8 µM [inhibitor, single point] | –
31 | COc1cc(NC(=O)C2CCN(S(=O)(=O)c3c(C)noc3/C=C/c3c(C)cc(C)cc3C)CC2)cc(OC)c1 | – | inactive: 23.6%
32 | CCOC(=O)c1cccc(NC(=O)NC2COc3ccccc3C2)c1 (stereo unspecified) | – | inactive: 14.6%
33 | COc1cccc(C(=O)c2cn(CC(=O)Nc3ccc4c(c3)OCCO4)c3nc(C)ccc3c2=O)c1 | – | inactive: -2.55%
34 | CC(=O)c1ccc(S(=O)(=O)Nc2cccc(-c3ccc(N4CCCC4)nn3)c2)cc1 | inconclusive: 100 µM [inhibitor, partial curve, poor fit] | –
35 | Cc1ccc(Sc2c(C)nn(-c3ccccc3)c2OC(=O)CC(C)C)cc1 | inconclusive: 39.8 µM [inhibitor, single point] | –
36 | O=C(O)c1ccccc1NS(=O)(=O)c1ccc(NN=Cc2cccc(Cl)c2)c([N+](=O)[O-])c1 | inconclusive: 39.8 µM [inhibitor, partial curve, poor fit] | –
37 | COc1ccccc1N1CCN(CC(O)COc2cccc3ccccc23)CC1 (stereo unspecified) | inconclusive: 0.0032 µM [inhibitor, full curve, poor fit] | –
38 | Cc1ccc(COC(=O)c2ccc(-c3nnn(Cc4ccc(C)cc4)n3)cc2)cc1 | inconclusive: 25.1 µM [inhibitor, single point] | –
39 | COC(=O)[C@]1(C)N[C@H](CN(C)S(=O)(=O)c2ccc(C(F)(F)F)cc2)[C@@H]2C(=O)N(C)C(=O)[C@@H]21 | inconclusive: 12.6 µM [inhibitor, full curve, poor fit] | –
40 | Cc1noc(C)c1NC(=O)N(C)C[C@H]1Oc2ccc(NC(=O)CCC(F)(F)F)cc2C(=O)N([C@H](C)CO)C[C@@H]1C | – | inactive: -8.35%
41 | CC1=C(C(=O)OC(C)C)C(c2cccs2)N2C(=O)C(C)SC2=N1 (stereo unspecified) | inconclusive: 11.2 µM [inhibitor, full curve, poor fit] | –
42 | COC(=O)COc1ccc(S(=O)(=O)Nc2ccc3c(c2)OCO3)cc1Cl | inconclusive: 89.1 µM [inhibitor, single point] | –
43 | Cc1ccc(-c2c3c(=O)n(C)c(=O)n(C)c3cn2Cc2ccccn2)cc1 | inconclusive: 2.82 µM [inhibitor, partial curve, poor fit] | –
44 | COc1cc2nc(N3CCN(C)CC3)nc(NC(C)C)c2cc1OC | – | inactive: 16.8%

Gathered by group, the compounds so far with a furan ring, fused or not (3)
Row | Structure (SMILES) | Potency | activity, negative = inhibition
9 | CCN(CC)C(=O)COc1ccc2oc(-c3ccco3)cc(=O)c2c1 | inconclusive: 44.7 µM [inhibitor, partial curve] | –
27 | NS(=O)(=O)c1ccc(-c2ccc(C=C3C(=O)c4ccccc4C3=O)o2)cc1 | inconclusive: 15.8 µM [inhibitor, partial curve, poor fit] | –
29 | CSc1nc(NCc2ccco2)c2ccccc2n1 | inconclusive: 35.5 µM [inhibitor, single point] | –

(further entries)

Row | Structure (SMILES) | Potency | activity, negative = inhibition
45 | c1ccc2c(c1)oc1c(N3CCOCC3)ncnc12 | inconclusive: 11.2 µM [inhibitor, full curve, poor fit] | –
46 | Cc1c(C#N)c2ccccc2n1CC(=O)NCCc1c[nH]c2ccccc12 | inconclusive: 39.8 µM [inhibitor, single point] | –
47 | Cc1ccc(/C=c2\s/c(=C(/C#N)C(=O)N3CCCC3)n(Cc3ccco3)c2=O)s1 | inconclusive: 22.4 µM [inhibitor, full curve, poor fit] | –
48 | Cc1cc(N)cc(C)c1-c1c(Br)cc(N)cc1Br | – | inactive: 13.8%
49 | CCC(=O)N(C1=C(NC(C)C)C(=O)c2ccccc2C1=O)C(C)C | inconclusive: 5.62 µM [inhibitor, partial curve, poor fit] | –
50 | O=c1[nH]c2cnccc2n1-c1ccccc1 | – | inactive: 12.8%
51 | CCCCN(c1ccccc1)S(=O)(=O)c1cc2c3c(c1)C(C)C(=O)N3CCC2 (stereo unspecified) | – | inactive: 7.43%
52 | CCOC(=O)c1sc(=S)n(C)c1NC(=O)c1ccccc1 | – | inactive: 8.49%
53 | O=C(COC(=O)c1cc(S(=O)(=O)N2CCOCC2)c(Cl)cc1Cl)NC1CC1 | inconclusive: 100 µM [inhibitor, partial curve, poor fit] | –
54 | COc1ccc(/C=N/NC(=O)CN2CCCC2)cc1 | inconclusive: 63.1 µM [inhibitor, single point] | –
55 | Cc1cccc(-c2sc(Nc3ccccc3)n[n+]2-c2ccc(F)cc2)c1 | inconclusive: 28.2 µM [inhibitor, partial curve, poor fit] | –
56 | O=C(COc1cccc2ccccc12)N/N=C/c1ccccc1OCc1ccc(C(=O)O)cc1 | – | inactive: 22.9%
57 | Cc1ccc(P(=O)(OCCN2CCOCC2)C(C)(C)C)o1 (stereo unspecified) | inconclusive: 89.1 µM [inhibitor, single point] | –
58 | O=C(NCc1ccc2c(c1)CCN2C(=O)c1ccncc1)c1cccc(F)c1 | – | inactive: 13.2%
59 | O=C(Cc1ccc(F)cc1)NCCc1csc2nc(-c3ccc(Cl)cc3)nn12 | – | inactive: 32.2%
60 | Cc1ccc(S(=O)(=O)N2CCN(C(=O)COC(=O)CCCOc3ccccc3)CC2)c(C)c1 | inconclusive: 79.4 µM [inhibitor, single point] | –
61 | Cc1[nH][nH]c(=O)c1C(c1ccc2c(c1)OCO2)c1c(C)[nH][nH]c1=O | inconclusive: 25.1 µM [inhibitor, full curve, poor fit] | –
62 | CCN1C(=O)/C(=C2/C=Cc3ccccc3N2C)OC1=S | inconclusive: 3.16 µM [inhibitor, single point] | –
63 | CCOC(=O)c1[nH]c2ccccc2c1NC(=O)c1ccc(S(=O)(=O)N2CCCC2)cc1 | inconclusive: 20 µM [inhibitor, partial curve, poor fit] | –
64 | COc1cc(/C=N/Nc2ccccc2C(F)(F)F)ccc1O | – | inactive: 47.8%
65 | O=C(/C=C/c1ccc(O)c([N+](=O)[O-])c1)c1ccc2ccccc2c1 | inconclusive: 22.4 µM [inhibitor, single point] | –
66 | COc1ccc(C(=O)c2no[n+]([O-])c2C(=O)c2ccc(OC)cc2)cc1 | inconclusive: 28.2 µM [inhibitor, partial curve] | –
